Results from patent publication US12329160B2, “Activated ferrate compositions” (THE TEXAS A & M UNIVERSITY SYSTEM, priority 2018, dated 2025).

Assay: Oxidation of individual organic contaminants by Fe^VI with or without S2O3^2− in buffered ultrapure water, HPLC
Type: physicochemical
Conditions: Fe^VI 100.0 μM, S2O3^2− 12.5 μM, pH 8.00, 30 s
Description: To test liquid ferrate solutions using second approach, batch experiments were conducted in a series of 100 mL glass jars under constant stirring rate (400 rpm) with a magnetic stirrer. Oxidation of each micropollutant or their mixtures by Fe^VI with or without S2O3^2− was initiated by mixing equal solution volumes of 10 mL, and the final reaction solutions were kept at 8.00±0.04.
The stock solutions of these contaminants (10.0 μM) were prepared in 10.0 mM Na2HPO4, and diluted using the same buffer solution before the removal experiments. […] Solutions of Fe^VI were prepared by adding K2FeO4 powders to 5.0 mM Na2HPO4/1.0 mM Na2B4O7.10H2O buffer solution. The concentrations of Fe^VI were quantitatively measured using an UV-visible spectrometer at a wavelength of 510 nm with a molar absorption coefficient of ε510 nm=1150 M^−1 cm^−1: The pH value of the contaminant solutions was adjusted to 7.50 via the addition of diluted H3PO4 before mixing with Fe^VI solution to achieve the desired reaction pH at 8.00±0.04. Methanol and phosphoric acid (85%) of high performance liquid chromatography (HPLC) grade were used in testing. […]
Experiments were conducted in a series of 100 mL glass jars under constant stirring rate (400 rpm) with a magnetic stirrer. […] Samples were transferred into high performance liquid chromatography (HPLC) vials, and were subsequently analyzed using the HPLC method. […]

## CC(C)NCC(O)COc1cccc2ccccc12 (centres unmarked) [PPN, Propranolol]
Individual contaminant 1.0 μM
  removal by Fe^VI—S2O3^2− (FIG. 3): Almost complete removal

## Cn1c(=O)c2c(ncn2C)n(C)c1=O [CAF, Caffeine]
Air or nitrogen, contaminant 1.0 μM
  oxidation by Fe^VI—S2O3^2− with versus without oxygen (FIG. 7): no obvious difference
